{"source": "patent US20190352409A1", "about": "(AUTOLUS, published 2019)", "key": {"[1]": {"target": "T1, Transmembrane activator and calcium modulator and cyclophilin ligand (CAML) interactor (TACI), on cells (human) (UniProt O14836)", "T1 sequence (looked up)": "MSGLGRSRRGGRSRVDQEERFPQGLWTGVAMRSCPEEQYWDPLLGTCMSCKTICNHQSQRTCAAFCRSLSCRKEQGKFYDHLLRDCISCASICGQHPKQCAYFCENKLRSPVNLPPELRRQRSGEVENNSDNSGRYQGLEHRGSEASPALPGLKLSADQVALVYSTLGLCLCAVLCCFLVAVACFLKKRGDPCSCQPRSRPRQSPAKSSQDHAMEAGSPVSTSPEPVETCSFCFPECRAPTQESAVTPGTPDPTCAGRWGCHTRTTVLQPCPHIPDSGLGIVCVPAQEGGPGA", "experiment": "flow cytometry on TACI positive SupT1 cells (FIG. 6b)"}, "[2]": {"target": "T2, recombinant human TACI purified protein (Peprotech, 310-17) (human) (UniProt O14836)", "T2 sequence (looked up)": "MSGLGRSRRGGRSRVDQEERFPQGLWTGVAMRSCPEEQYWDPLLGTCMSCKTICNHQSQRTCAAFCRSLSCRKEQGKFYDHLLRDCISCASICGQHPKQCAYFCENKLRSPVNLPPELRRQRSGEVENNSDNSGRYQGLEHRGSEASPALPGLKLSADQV", "experiment": "ELISA of hybridoma supernatant on recombinant human TACI"}, "[3]": {"target": "T1, Transmembrane activator and calcium modulator and cyclophilin ligand (CAML) interactor (TACI), on cells (human)", "experiment": "flow cytometry of hybridoma supernatant on SupT1 cells overexpressing TACI"}}, "note": "These are yes or no findings as the source states them, for the method shown. Some entries that bind do so weakly or less than the wild type."}
{"binder": "2H6 anti-TACI monoclonal antibody (mouse hybridoma) (antibody, V domains shown) VH: EVQLQQSGPELVKPGASVRMSCKASGYTFTNYVMHWVKQKPGQGLEWIGYINPSNDDTKYTEKFKGKATLTSDKSSSTAYMELSSLTSEDSAVYYCARGTHGDYYALDYWGQGTSVTVSS VL: DIVLTQSPASLAVSLGQSVTISCRASESVEYYGTSLMQWYQQKPGQAPKLLIYGASNVESGVPARFSGSGSGTDFSLNIHPVEEDDIAMYFCQQSRKVPWTFGGGTKLEI", "values": [{"measurement": "binding", "setting": "[1]", "value": "binds"}, {"measurement": "binding", "setting": "[2]", "value": "binds"}, {"measurement": "binding", "setting": "[3]", "value": "binds"}]}
{"binder": "2G2 anti-TACI monoclonal antibody (mouse hybridoma) (antibody, V domains shown, Tested as hybridoma supernatant from BalBC mice) VH: QVTLKESGPGMLQPSQTLSLTCSFSGFSLSTFGMGVGWIRQPSGKGLEWLAHIWWDDAQYSNPALRSRLTISKDTSKNQVFLKIANVDTADTATYYCSRIHSYYSYDEGFAYWGQGTLVTVSS VL: DIVMTQSQKFMSTTVGDRVSITCKASQNVGTAVAWYQQKPGQSPKLLIYSASNRYTGVPDRFTGSGSGTDFTLTISNMQSEDLADYFCQQYSSYRTFGGGTKLEIKR", "values": [{"measurement": "binding", "setting": "[2]", "value": "binds"}]}
{"binder": "1G6 anti-TACI monoclonal antibody (mouse hybridoma) (antibody, V domains shown, Tested as hybridoma supernatant from BalBC mice) VH: QVQLKQSGPGLVAPSQSLSITCTVSGFSLTSYGVDWVRQSPGKGLEWLGIIWGGGRTNYNSAFKSRLSISKDNSKSQVFLKMNSLQTDDTAMYYCASGDRAADYWGQGTSVTVSS VL: DIVMTQSQKFMSTTVGDRVTITCKASQNVGTAVAWYQQKPGQSPKLLIYSASNRYTGVPVRFTGSGSGTDFTLTINNMQSEDLADYFCQQYSSYPLTFGAGTKLELK", "values": [{"measurement": "binding", "setting": "[2]", "value": "binds"}]}
{"binder": "4B11 anti-TACI monoclonal antibody (mouse hybridoma) (antibody, V domains shown, Tested as hybridoma supernatant from BalBC mice) VH: EVQLQQSVAELVRPGASVKLSCTASGFNIKNTYIHWVKQRPEQGLEWIGKIDPANGNSEYAPKFQGKATITADTSSNTAYLQLSSLTSEDTTIYYCTSGYGAYWGQGTTLTVSS VL: DIVLSQSPSSLAVSIGEKVTLSCKSSQSLLYSSNQKNYLAWFQQKPGQSLKLLIYWASTREFGVPDRFTGSGSGTDFTLTISSVKTEDLAVYYCQQYYTWTFGGGTKLEIK", "values": [{"measurement": "binding", "setting": "[2]", "value": "binds"}]}
